Experimental data as given in PMC6670220.
Results are given in words; binding and its absence hold for the method and conditions named. In cells and extracts the contact can be indirect. Some entries that bind do so weakly or less than the wild type.

Sequences of proteins named here, by UniProt entry; tags and fusion partners are left off. A change or cut given only in a name is not applied to a line headed by its entry. A line that says so, or that is headed by a name, gives the form on record, which may keep a tag or linker.
UniProt P35222: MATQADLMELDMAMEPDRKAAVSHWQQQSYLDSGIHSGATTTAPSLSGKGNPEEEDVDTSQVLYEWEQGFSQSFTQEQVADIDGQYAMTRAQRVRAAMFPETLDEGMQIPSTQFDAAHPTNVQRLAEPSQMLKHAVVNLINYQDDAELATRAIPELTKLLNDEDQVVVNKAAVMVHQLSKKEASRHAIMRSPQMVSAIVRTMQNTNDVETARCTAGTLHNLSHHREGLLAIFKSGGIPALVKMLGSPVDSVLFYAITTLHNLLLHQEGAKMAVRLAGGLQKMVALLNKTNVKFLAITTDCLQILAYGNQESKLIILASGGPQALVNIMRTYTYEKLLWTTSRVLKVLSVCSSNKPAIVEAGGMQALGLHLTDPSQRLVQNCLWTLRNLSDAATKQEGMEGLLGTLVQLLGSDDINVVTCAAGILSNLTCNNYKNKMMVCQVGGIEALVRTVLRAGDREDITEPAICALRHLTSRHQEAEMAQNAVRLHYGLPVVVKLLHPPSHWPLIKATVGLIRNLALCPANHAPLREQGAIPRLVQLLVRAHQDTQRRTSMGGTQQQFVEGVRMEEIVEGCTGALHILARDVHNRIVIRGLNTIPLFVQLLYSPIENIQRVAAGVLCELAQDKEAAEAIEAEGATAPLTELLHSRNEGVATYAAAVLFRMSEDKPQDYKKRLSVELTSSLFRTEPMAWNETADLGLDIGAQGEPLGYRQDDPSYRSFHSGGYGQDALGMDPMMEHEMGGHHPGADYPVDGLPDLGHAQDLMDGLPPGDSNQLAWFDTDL
Runt-related transcription factor 1 (RUNX1) (Q01196-8, form named): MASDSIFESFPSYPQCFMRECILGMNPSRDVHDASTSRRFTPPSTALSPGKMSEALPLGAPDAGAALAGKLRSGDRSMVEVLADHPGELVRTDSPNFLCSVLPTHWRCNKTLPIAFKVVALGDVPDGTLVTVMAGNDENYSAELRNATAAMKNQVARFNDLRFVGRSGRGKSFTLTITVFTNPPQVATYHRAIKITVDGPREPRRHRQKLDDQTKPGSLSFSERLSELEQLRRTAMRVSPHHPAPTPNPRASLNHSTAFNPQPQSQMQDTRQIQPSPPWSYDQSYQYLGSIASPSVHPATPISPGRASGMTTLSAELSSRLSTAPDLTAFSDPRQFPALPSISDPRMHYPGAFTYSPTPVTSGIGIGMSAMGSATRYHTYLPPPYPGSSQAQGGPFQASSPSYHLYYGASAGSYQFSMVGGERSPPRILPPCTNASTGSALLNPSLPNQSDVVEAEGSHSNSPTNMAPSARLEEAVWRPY

Molecular target: β-catenin (human (endogenous in SW480)) (UniProt P35222)
Assay: co-IP; in SW480 cells; which protein was precipitated and the conditions are not told

Runt-related transcription factor 1 (RUNX1) (from UniProt Q01196-8 1-480)
binding: binds
